Publication PMC4460818
No constants are given. Whether binding was seen depends on the method and setting. For some assays here: Binding seen in cells or lysates may run through a third protein. Some results given as binding are weak or reduced against the parent protein; the word gives no strength.

The chains behind the UniProt entries cited, without tags or fusion partners.
UniProt Q15208: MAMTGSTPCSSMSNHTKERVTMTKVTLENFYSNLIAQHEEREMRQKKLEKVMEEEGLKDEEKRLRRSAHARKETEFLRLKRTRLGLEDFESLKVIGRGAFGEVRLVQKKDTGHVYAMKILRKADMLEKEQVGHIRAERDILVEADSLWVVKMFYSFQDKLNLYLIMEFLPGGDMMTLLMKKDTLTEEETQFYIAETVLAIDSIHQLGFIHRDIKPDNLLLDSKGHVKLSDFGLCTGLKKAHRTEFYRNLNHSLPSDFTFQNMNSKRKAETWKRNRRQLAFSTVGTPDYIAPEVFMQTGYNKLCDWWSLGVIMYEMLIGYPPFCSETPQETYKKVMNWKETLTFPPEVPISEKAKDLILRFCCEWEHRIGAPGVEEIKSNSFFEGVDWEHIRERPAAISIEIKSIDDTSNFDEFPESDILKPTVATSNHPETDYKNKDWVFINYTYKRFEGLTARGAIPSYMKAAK
UniProt P53350: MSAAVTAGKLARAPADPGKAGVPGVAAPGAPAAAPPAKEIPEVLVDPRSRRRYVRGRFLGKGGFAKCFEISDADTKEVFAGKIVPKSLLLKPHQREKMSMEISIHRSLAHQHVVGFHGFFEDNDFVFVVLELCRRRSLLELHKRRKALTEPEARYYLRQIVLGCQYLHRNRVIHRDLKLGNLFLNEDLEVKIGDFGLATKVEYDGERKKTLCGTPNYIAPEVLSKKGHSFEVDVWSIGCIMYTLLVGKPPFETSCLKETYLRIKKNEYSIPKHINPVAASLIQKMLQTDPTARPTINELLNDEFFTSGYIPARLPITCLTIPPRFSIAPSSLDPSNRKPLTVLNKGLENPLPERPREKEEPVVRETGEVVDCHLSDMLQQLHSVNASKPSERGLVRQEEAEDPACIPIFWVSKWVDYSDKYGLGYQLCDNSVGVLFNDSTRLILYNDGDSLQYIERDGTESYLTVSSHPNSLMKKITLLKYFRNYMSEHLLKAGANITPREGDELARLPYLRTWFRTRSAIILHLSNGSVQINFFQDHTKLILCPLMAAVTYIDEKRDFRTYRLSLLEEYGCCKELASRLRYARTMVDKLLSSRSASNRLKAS

Experiments:
[1] = biological target: FLAG-NDR1 wild type (human) (UniProt Q15208); experiment: co-IP; 293T cells transiently transfected with FLAG-NDR1 together with GFP or GFP-PLK1; immunoprecipitation with Flag antibody or IgG; immunoblot with Flag and GFP antibodies
[2] = biological target: GST-PLK1 fusion protein (UniProt P53350); experiment: pull-down; GST or GST-fusion protein on agarose beads incubated with purified dissolved MBP-tagged proteins in PBS, 0.1% Triton X-100, 0.5 mM DTT, 4 °C, 3-8 hours; SDS-PAGE, CBB stain; bands quantified by ImageJ for the Mob1A pull-down; both purified

| Substance | binding [1] | binding [2] |
| --- | --- | --- |
| GFP-PLK1 (from UniProt P53350 1-603) (enzyme) | binds |  |
| MBP-NDR1 wild type (from UniProt Q15208 1-465) (enzyme) |  | binds |
